Experimental data reported in patent US20140050778A1, “NUCLEIC ACID BINDING COMPOUNDS, METHODS OF MAKING, AND USE THEREOF” (UNIVERSITY OF ROCHESTER, priority 2010, published 2014).
At least one structure is not confirmed: it was looked up by name or label, or the drawing left a doubt.

Tested on: HIV-1 FSS RNA (SEQ ID NO: 7)
Test: SPR binding to immobilized biotinylated RNA
Description: SPR binding measurements were performed on a Biacore-X instrument (Biacore, Inc., Uppsala, Sweden) with two flow channels (FC1 and FC2). 5′-Biotinylated-RNA sequences, with a C6 linker separating the biotin label from the RNA (Integrated DNA Technologies Inc.) were immobilized on streptavidin (Rockland Immunochemicals) functionalized carboxylmethyl dextran coated sensor chips (CM5, G.E. Healthcare) using EDC/NHS (Advanced ChemTech) coupling chemistry. Filtered (0.2μ), degassed and autoclaved HBS-N buffer (0.01M Hepes, pH=7.4, 0.15 M NaCl) was employed as sample and as running buffer for all SPR experiments. A typical protocol for an experiment is as follows: A CM5 sensor chip was allowed to equilibrate to room temperature and then docked into the instrument. […] Binding measurements were performed by flowing various concentrations of the compounds to be analyzed over the immobilized RNA and recording the reference-subtracted (FC2−FC1) sensorgrams. […]
SPR and fluorescence titration experiments, performed using the protocol described in Examples 3 and 4 above, except using as the target a highly conserved RNA sequence responsible for regulating the production of the Gag-Pol polyprotein via a −1 ribosomal frameshift, which occurs along a “slippery sequence” in gag-pol mRNA (SEQ ID NO: 7). […]

CCc1nc2cc3ccccc3cc2cc1C(=O)N1CCC[C@H]1C(=O)N[C@@H](C/C=C/C[C@H](NC(=O)[C@@H]1CCCN1C(=O)c1cc2cc3ccccc3cc2nc1CC)C(=O)N[C@@H](CCCCN)C(=O)NCCCN)C(=O)N[C@@H](CCCCN)C(=O)NCCCN [Compound 5]
Off-rates (koff): 0.00393 s⁻¹ | Kd (read-out: apparent KD): 759.55 ± 0.5 nM
